Data as given in paper PMC3978064.

Sequences of proteins named here, by UniProt entry; tags and fusion partners are left off.
UniProt P12814: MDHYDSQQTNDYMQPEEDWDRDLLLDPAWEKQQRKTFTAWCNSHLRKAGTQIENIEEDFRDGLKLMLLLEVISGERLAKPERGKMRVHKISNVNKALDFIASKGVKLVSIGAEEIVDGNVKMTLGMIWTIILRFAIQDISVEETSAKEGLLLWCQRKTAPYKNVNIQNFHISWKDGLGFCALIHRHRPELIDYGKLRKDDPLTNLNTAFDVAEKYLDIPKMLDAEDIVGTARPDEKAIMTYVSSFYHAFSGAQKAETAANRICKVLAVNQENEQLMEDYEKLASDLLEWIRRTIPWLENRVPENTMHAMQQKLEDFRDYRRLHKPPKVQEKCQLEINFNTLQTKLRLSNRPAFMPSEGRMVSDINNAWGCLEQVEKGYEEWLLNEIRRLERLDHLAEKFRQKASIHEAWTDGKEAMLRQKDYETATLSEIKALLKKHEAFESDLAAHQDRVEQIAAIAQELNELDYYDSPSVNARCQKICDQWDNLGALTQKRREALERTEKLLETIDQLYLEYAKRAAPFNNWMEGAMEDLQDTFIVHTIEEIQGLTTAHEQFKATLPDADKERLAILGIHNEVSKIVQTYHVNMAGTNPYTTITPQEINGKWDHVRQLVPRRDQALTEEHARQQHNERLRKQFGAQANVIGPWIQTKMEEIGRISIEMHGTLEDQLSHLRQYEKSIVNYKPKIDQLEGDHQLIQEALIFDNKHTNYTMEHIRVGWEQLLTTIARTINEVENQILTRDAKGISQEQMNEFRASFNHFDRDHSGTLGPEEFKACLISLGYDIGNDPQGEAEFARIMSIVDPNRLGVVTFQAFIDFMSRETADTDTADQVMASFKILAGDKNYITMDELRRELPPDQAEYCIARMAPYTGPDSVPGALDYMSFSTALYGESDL

Molecular target: T1, recombinant analogue of lactaptin RL2 (human) (UniProt P07498)
T1 sequence: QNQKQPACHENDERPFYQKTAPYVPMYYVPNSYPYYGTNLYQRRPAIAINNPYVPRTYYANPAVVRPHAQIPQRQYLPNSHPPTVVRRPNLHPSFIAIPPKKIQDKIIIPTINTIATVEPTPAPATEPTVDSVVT
Assay: affinity purification with mass spectrometry; RL2 covalently immobilised on CH-Sepharose 4B (3 mg per mL); MCF-7 lysate in TBS (50 mM Tris pH 8.0, 150 mM NaCl) with 1% Triton X-100; washed with TBS; unique bands only in the fraction eluted by 300 mM NaCl, 20 mM Tris-HCl pH 7.5; control on non-modified Sepharose; bands cut from SDS-PAGE and identified by MALDI-TOF MS; only the target purified

Row | Substance | binding
1 | α/β-tubulin (human) (complex) | binds
2 | α-actinin-1 (from UniProt P12814 1-892) | binds

These are yes or no findings as the source states them, for the method shown. In cells and extracts the contact can be indirect. A yes stands for co-enrichment or nearness to the bait. Other partners may have been found.
